Laboratory results reported in patent US20230167185A1.
Results are given in words; binding and its absence hold for the method and conditions named. Some results given as binding are weak or reduced against the parent protein; the word gives no strength.

Chains of the proteins cited; added tags and fusions are not shown. Lines headed by an entry give the natural chain unless they say otherwise; changes in a name come on top.
UniProt P25942: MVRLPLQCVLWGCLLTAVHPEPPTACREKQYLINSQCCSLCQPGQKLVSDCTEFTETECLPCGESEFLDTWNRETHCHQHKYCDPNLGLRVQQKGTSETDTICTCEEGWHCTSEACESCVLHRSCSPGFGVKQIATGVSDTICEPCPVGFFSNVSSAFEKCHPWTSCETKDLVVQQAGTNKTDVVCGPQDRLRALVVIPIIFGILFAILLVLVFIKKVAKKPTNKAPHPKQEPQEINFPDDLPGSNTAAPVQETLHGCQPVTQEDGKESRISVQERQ

What was measured:
[1] = target: Cynomolgus CD40 Fc chimera (R&D Systems #9660-CD) (cynomolgus) (UniProt G7PG38); experiment: SPR, captured IgG2
[2] = target: hCD40-Fc (Sino Biological #10774-H38H) (human) (UniProt P25942); experiment: SPR, captured IgG2, hCD40-Fc (Sino) 0.16-100 nM, SCK

binding [1]: binds | binding [2]: binds
B1: Y-SM083-A9 (antibody, human IgG2, kappa, V domains shown)
VH: EVQLLESGGGLVQPGGSLRLSCAASGFTFSSYAMSWVRQAPGKGLEWVSGISGYSGSTYYADSVKGRFTISRDNSKNTLYLQMNSLRAEDTAVYYCARYYSYYGYYYFDYWGQGTLVTVSS
VL: DIQMTQSPSSLSASVGDRVTITCRASQSISSYLNWYQQKPGKAPKLLIYAASSLQSGVPSRFSGSGSGTDFTLTISSLQPEDFATYYCQQGYPYPFTFGQGTKLEIKR
